Values quoted from earlier work as cited in patent US20060136140A1, “Method for identification and functional characterization of agents which modulate ion channel activity” (priority 2004, published 2006).
At least one compound was matched to its structure with a doubt left.

Target: T1, Kv4.3L currents (Homo sapiens, UniProt Q9UK17)
T1 sequence (Q9UK17 1-655): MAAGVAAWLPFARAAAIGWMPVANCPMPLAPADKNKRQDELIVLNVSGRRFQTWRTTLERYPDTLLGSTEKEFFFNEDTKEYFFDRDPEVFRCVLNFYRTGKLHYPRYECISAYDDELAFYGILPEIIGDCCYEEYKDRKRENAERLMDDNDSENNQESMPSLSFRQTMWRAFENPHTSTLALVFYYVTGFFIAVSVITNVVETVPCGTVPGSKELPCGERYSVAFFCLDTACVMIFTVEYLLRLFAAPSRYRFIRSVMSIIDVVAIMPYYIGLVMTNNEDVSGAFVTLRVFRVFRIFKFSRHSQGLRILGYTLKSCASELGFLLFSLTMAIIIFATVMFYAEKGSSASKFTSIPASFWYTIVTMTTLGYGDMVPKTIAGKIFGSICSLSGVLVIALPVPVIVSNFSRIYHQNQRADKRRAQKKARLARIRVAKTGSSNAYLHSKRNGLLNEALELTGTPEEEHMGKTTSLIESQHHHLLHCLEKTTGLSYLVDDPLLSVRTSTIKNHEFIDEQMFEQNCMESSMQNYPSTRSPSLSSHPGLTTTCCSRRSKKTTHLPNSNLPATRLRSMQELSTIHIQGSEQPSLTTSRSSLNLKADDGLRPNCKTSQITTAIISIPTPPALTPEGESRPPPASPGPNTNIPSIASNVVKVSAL
Conditions: 1 micro M; cited from earlier work

## COC(=O)C1=C(C)NC(C)=C(C(=O)OCCN(C)Cc2ccccc2)C1c1cccc([N+](=O)[O-])c1 (stereo not shown) [nicardipine, Nicardipine]
  effect on Kv4.3L currents: shifted the voltage dependence of activation and steady-state inactivation to more negative potentials
